Values from PubChem BioAssay AID504764 (Drosophila RNAi Screening Center, 2011)
Test: 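Genes whose knock-down alters Notch-dependent transcription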 (primary screen). System: Drosophila Kc167 cells. Reagents: long dsRNA against Drosophila genes. Time to read-out: about 5 days (4 days dsRNA, then 24 h after transfection). Treatment: transfection of constitutively active membrane-tethered Notch lacking the extracellular domain, read 24 h later. Measurement: 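Firefly luciferase from an E(spl)m3 reporter with active Notch, plus control-promoter and uninduced reporter wells for normalisation; unnormalised counts, duplicate wells a and b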. Direction: induced reporter light, run 1, well a and induced reporter light, run 1, well b: higher = more light from the Notch target reporter with active Notch; control promoter light, run 1, well a and control promoter light, run 1, well b: higher = more light from the viral control promoter (cell number, transfection, viability); uninduced reporter light, run 1, well a: higher = more light from the Notch target reporter without active Notch. Hit rule: 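Hit if the duplicate-averaged log2 ratio of induced to control-promoter light gives a plate-wise z beyond ±2, or induced to uninduced beyond ±1.8; weak-control or discordant-duplicate wells dropped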. Calls: active = modifier hit (raised or lowered Notch signal); inactive = not a hit.
The deposit covers about 22,000 reagents; shown is an unselected part of those that have a named target and a result. Over the whole deposit, 403 (1.9%) are marked active. 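Unnormalised raw counts per well; ratio z-scores behind the hit calls and whether each hit raises or lowers signal are not deposited.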 Names joined by + are all predicted targets of the reagent. The record does not give: the amount of reagent.

After knock-down of Cka [DRSC03476] the results were induced reporter light, run 1, well a = 1.33e5; induced reporter light, run 1, well b = 1.81e5; control promoter light, run 1, well a = 72370; control promoter light, run 1, well b = 90230; uninduced reporter light, run 1, well a = 18930; inactive.
Knock-down of Mcm2 [DRSC16734] resulted in: induced reporter light, run 1, well a = 78090; induced reporter light, run 1, well b = 1.04e5; control promoter light, run 1, well a = 1.68e5; control promoter light, run 1, well b = 1.18e5; uninduced reporter light, run 1, well a = 6378; inactive.
For Obp44a [DRSC06838] the deposit lists induced reporter light, run 1, well a = 2.05e5; induced reporter light, run 1, well b = 1.93e5; control promoter light, run 1, well a = 2.29e5; control promoter light, run 1, well b = 2.10e5; uninduced reporter light, run 1, well a = 15120; inactive.
Against cib [DRSC18660], the values are induced reporter light, run 1, well a = 1.52e5; induced reporter light, run 1, well b = 1.75e5; control promoter light, run 1, well a = 2.98e5; control promoter light, run 1, well b = 3.33e5; uninduced reporter light, run 1, well a = 9850; inactive.
With knock-down of Ten-m [DRSC11664], the screen gave induced reporter light, run 1, well a = 99530; induced reporter light, run 1, well b = 93910; control promoter light, run 1, well a = 1.15e5; control promoter light, run 1, well b = 93560; uninduced reporter light, run 1, well a = 6990; inactive.
With knock-down of Ten-m [DRSC11882], the record shows induced reporter light, run 1, well a = 97735; induced reporter light, run 1, well b = 1.07e5; control promoter light, run 1, well a = 1.11e5; control promoter light, run 1, well b = 1.00e5; uninduced reporter light, run 1, well a = 9520; inactive.
With knock-down of PolZ1 [DRSC06800], the screen gave induced reporter light, run 1, well a = 2.23e5; induced reporter light, run 1, well b = 1.49e5; control promoter light, run 1, well a = 1.49e5; control promoter light, run 1, well b = 1.36e5; uninduced reporter light, run 1, well a = 15315; inactive.
After knock-down of Las [DRSC11772], the screen gave induced reporter light, run 1, well a = 90205; induced reporter light, run 1, well b = 1.05e5; control promoter light, run 1, well a = 60690; control promoter light, run 1, well b = 76440; uninduced reporter light, run 1, well a = 8525; inactive.
chk [DRSC04994] scored induced reporter light, run 1, well a = 1.90e5; induced reporter light, run 1, well b = 1.50e5; control promoter light, run 1, well a = 1.75e5; control promoter light, run 1, well b = 1.85e5; uninduced reporter light, run 1, well a = 13210; inactive.
Knock-down of CG32163 [DRSC09442] came out at: induced reporter light, run 1, well a = 1.53e5; induced reporter light, run 1, well b = 1.46e5; control promoter light, run 1, well a = 1.94e5; control promoter light, run 1, well b = 2.41e5; uninduced reporter light, run 1, well a = 14885; inactive.
Silencing of CG14355 [DRSC14818] gave: induced reporter light, run 1, well a = 1.61e5; induced reporter light, run 1, well b = 1.74e5; control promoter light, run 1, well a = 1.11e5; control promoter light, run 1, well b = 1.17e5; uninduced reporter light, run 1, well a = 9970; inactive.
Ip6k [DRSC04054] showed induced reporter light, run 1, well a = 1.55e5; induced reporter light, run 1, well b = 1.96e5; control promoter light, run 1, well a = 1.57e5; control promoter light, run 1, well b = 1.41e5; uninduced reporter light, run 1, well a = 15735; inactive.
With knock-down of Vmat + CG13330 [DRSC06365], the record shows induced reporter light, run 1, well a = 91720; induced reporter light, run 1, well b = 97850; control promoter light, run 1, well a = 73045; control promoter light, run 1, well b = 79420; uninduced reporter light, run 1, well a = 7405; inactive.
Knock-down of CG9775 [DRSC12330] gave: induced reporter light, run 1, well a = 1.37e5; induced reporter light, run 1, well b = 1.39e5; control promoter light, run 1, well a = 1.09e5; control promoter light, run 1, well b = 1.31e5; uninduced reporter light, run 1, well a = 9565; inactive.
CG9775 [DRSC22667] scored active.
Against Dcps [DRSC12299] the deposit lists induced reporter light, run 1, well a = 1.21e5; induced reporter light, run 1, well b = 1.14e5; control promoter light, run 1, well a = 89035; control promoter light, run 1, well b = 86695; uninduced reporter light, run 1, well a = 10500; inactive.
CG10177 [DRSC14201] showed induced reporter light, run 1, well a = 1.49e5; induced reporter light, run 1, well b = 1.40e5; control promoter light, run 1, well a = 1.55e5; control promoter light, run 1, well b = 1.63e5; uninduced reporter light, run 1, well a = 11192; inactive.
TwdlM [DRSC15810] showed induced reporter light, run 1, well a = 1.77e5; induced reporter light, run 1, well b = 1.84e5; control promoter light, run 1, well a = 2.81e5; control promoter light, run 1, well b = 2.10e5; uninduced reporter light, run 1, well a = 20410; inactive.
With knock-down of CG31368 [DRSC14949], the record shows induced reporter light, run 1, well a = 57140; induced reporter light, run 1, well b = 66010; control promoter light, run 1, well a = 71275; control promoter light, run 1, well b = 58170; uninduced reporter light, run 1, well a = 5635; inactive.
For CG31368 [DRSC14951], the entry reads induced reporter light, run 1, well a = 1.28e5; induced reporter light, run 1, well b = 1.55e5; control promoter light, run 1, well a = 1.01e5; control promoter light, run 1, well b = 1.06e5; uninduced reporter light, run 1, well a = 9395; inactive.
Against CG5973 [DRSC02918], the values are induced reporter light, run 1, well a = 98810; induced reporter light, run 1, well b = 99065; control promoter light, run 1, well a = 99870; control promoter light, run 1, well b = 89085; uninduced reporter light, run 1, well a = 7075; inactive.
After knock-down of EAChm [DRSC10010], the record shows induced reporter light, run 1, well a = 2.01e5; induced reporter light, run 1, well b = 1.43e5; control promoter light, run 1, well a = 2.20e5; control promoter light, run 1, well b = 2.14e5; uninduced reporter light, run 1, well a = 10835; inactive.
Silencing of CG16953 [DRSC15167] came out at: induced reporter light, run 1, well a = 41660; induced reporter light, run 1, well b = 41265; control promoter light, run 1, well a = 45480; control promoter light, run 1, well b = 50610; uninduced reporter light, run 1, well a = 4720; inactive.
Against CG17111 [DRSC15174], the entry reads induced reporter light, run 1, well a = 1.53e5; induced reporter light, run 1, well b = 1.59e5; control promoter light, run 1, well a = 1.95e5; control promoter light, run 1, well b = 1.89e5; uninduced reporter light, run 1, well a = 13780; inactive.

No new results follow: entries from further up.
Obp44a [DRSC06838] — induced reporter light, run 1, well a = 2.05e5; induced reporter light, run 1, well b = 1.93e5; control promoter light, run 1, well a = 2.29e5; control promoter light, run 1, well b = 2.10e5; uninduced reporter light, run 1, well a = 15120; Call = inactive
cib [DRSC18660] — induced reporter light, run 1, well a = 1.52e5; induced reporter light, run 1, well b = 1.75e5; control promoter light, run 1, well a = 2.98e5; control promoter light, run 1, well b = 3.33e5; uninduced reporter light, run 1, well a = 9850; Call = inactive
Ten-m [DRSC11664] — induced reporter light, run 1, well a = 99530; induced reporter light, run 1, well b = 93910; control promoter light, run 1, well a = 1.15e5; control promoter light, run 1, well b = 93560; uninduced reporter light, run 1, well a = 6990; Call = inactive
Ten-m [DRSC11882] — induced reporter light, run 1, well a = 97735; induced reporter light, run 1, well b = 1.07e5; control promoter light, run 1, well a = 1.11e5; control promoter light, run 1, well b = 1.00e5; uninduced reporter light, run 1, well a = 9520; Call = inactive
